Results deposited as PubChem BioAssay AID504791 (Drosophila RNAi Screening Center, 2011).
Aim: 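Genes of the fly required for silencing by miRNA, siRNA or endo-siRNA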 (primary screen). Cell system: Drosophila S2-derived reporter cells. Reagent: long dsRNA against Drosophila genes, about 150-250 ng dsRNA per well (siRNA assay); about 80-120 ng (miRNA assay). Time to read-out: about 5 days (siRNA assay); about 4 days (miRNA assay). Treatment: copper sulfate induction of reporters: 25 µM (siRNA assay); 200 mM stated (miRNA assay), 1-2 days before reading. Detection: 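Per-well ratio of Renilla over firefly light, expressed relative to that plate's average ratio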. Units: stable assay Renilla, run 1 in luminescence; stable assay firefly, run 1 in luminescence. Hit rule: 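First-pass picks had plate-scaled ratios over 1.5 for the siRNA assay, over 1.6 for the miRNA assay, or under 0.6; two distinct dsRNAs had to score alike on retest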.
The screen tested about 23,000 reagents; shown is an unselected part of those that have a named target and a result. In the full data, 199 (0.86%) got an active call. 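Plate-scaled ratios behind the calls are not deposited; printed light signals are raw; many rows marked increased or decreased are still called inactive.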 Entries without a mark were called inactive. Reagents against one gene are numbered here. A plus sign joins genes that one reagent is predicted to hit. Not given: the direction of the score.

After knock-down of Rdh1 (GeneID 35708), the record shows stable assay Renilla, run 1 = 8146; stable assay firefly, run 1 = 6.35e5.
After knock-down of inaF-A (GeneID 5740676), the screen gave stable assay Renilla, run 1 = 5007; stable assay firefly, run 1 = 4.16e5.
For Spred (GeneID 36643), the values are stable assay Renilla, run 1 = 9048; stable assay firefly, run 1 = 3.90e5.
After knock-down of CG9521 (GeneID 32414), the record shows stable assay Renilla, run 1 = 5507; stable assay firefly, run 1 = 2.84e5.
After knock-down of CadN2 + CG42830 #1, the screen gave stable assay Renilla, run 1 = 6083; stable assay firefly, run 1 = 3.70e5.
After knock-down of CadN2 + CG42830 #2, the screen gave stable assay Renilla, run 1 = 6591; stable assay firefly, run 1 = 4.00e5.
CadN2 + CG42830 #3 showed stable assay Renilla, run 1 = 7508; stable assay firefly, run 1 = 4.27e5.
Against FMRFaR (GeneID 38357) the deposit lists stable assay Renilla, run 1 = 6480; stable assay firefly, run 1 = 2.98e5.
Knock-down of ATP6AP2 (GeneID 41104) resulted in: stable assay Renilla, run 1 = 5960; stable assay firefly, run 1 = 4.38e5.
Depletion of CG13676 (GeneID 38906) came out at: stable assay Renilla, run 1 = 6708; stable assay firefly, run 1 = 6.01e5.
Knock-down of Arl4 (GeneID 43771) gave: stable assay Renilla, run 1 = 5739; stable assay firefly, run 1 = 4.22e5.
CG4622 (GeneID 37919) gave stable siRNA reporter change reporter ratio raised past the hit cutoff; stable assay Renilla, run 1 = 1.97e5; stable assay firefly, run 1 = 1.05e6.
Against CG14650 (GeneID 40566), the values are stable assay Renilla, run 1 = 4167; stable assay firefly, run 1 = 5.09e5.
CG14309 (GeneID 42212) showed stable assay Renilla, run 1 = 7951; stable assay firefly, run 1 = 3.29e5.
With knock-down of CG17027 (GeneID 39742), the record shows stable assay Renilla, run 1 = 10022; stable assay firefly, run 1 = 3.35e5.
For CG8034 (GeneID 32924) the deposit lists stable assay Renilla, run 1 = 7847; stable assay firefly, run 1 = 3.79e5.
Against CG4477 (GeneID 39058), the entry reads stable assay Renilla, run 1 = 7807; stable assay firefly, run 1 = 5.98e5.
With knock-down of CG16890 (GeneID 34781), the screen gave stable assay Renilla, run 1 = 7814; stable assay firefly, run 1 = 1.36e6.
Against mRpL52 (GeneID 35711), the entry reads stable assay Renilla, run 1 = 5724; stable assay firefly, run 1 = 3.80e5.
Ire1 (GeneID 42358) showed stable assay Renilla, run 1 = 8705; stable assay firefly, run 1 = 5.22e5.
For Arfip (GeneID 41353) the deposit lists stable assay Renilla, run 1 = 8098; stable assay firefly, run 1 = 5.69e5.
CG11438 (GeneID 40469) gave stable assay Renilla, run 1 = 7867; stable assay firefly, run 1 = 4.37e5.
RpS19a (GeneID 32635) showed stable assay Renilla, run 1 = 5543; stable assay firefly, run 1 = 3.91e5.
Against Pka-C1 (GeneID 34284) #1 the deposit lists stable assay Renilla, run 1 = 6126; stable assay firefly, run 1 = 6.16e5.
Pka-C1 (GeneID 34284) #2 showed stable assay Renilla, run 1 = 5186; stable assay firefly, run 1 = 3.51e5.
With knock-down of CG15480 (GeneID 34723) the results were stable assay Renilla, run 1 = 6778; stable assay firefly, run 1 = 3.29e5.
After knock-down of CG33310 (GeneID 2768910), the screen gave stable assay Renilla, run 1 = 7230; stable assay firefly, run 1 = 3.49e5.
Depletion of CG6683 (GeneID 38970) came out at: stable assay Renilla, run 1 = 7577; stable assay firefly, run 1 = 3.77e5.
CG9344 (GeneID 37372) gave stable assay Renilla, run 1 = 7038; stable assay firefly, run 1 = 3.57e5.
CG15160 (GeneID 35109) gave stable assay Renilla, run 1 = 6134; stable assay firefly, run 1 = 5.40e5.
For CG34150 (GeneID 4379863), the values are stable assay Renilla, run 1 = 5718; stable assay firefly, run 1 = 3.52e5.
With knock-down of CG34433 (GeneID 5740702), the record shows stable assay Renilla, run 1 = 7199; stable assay firefly, run 1 = 4.34e5.
For JhI-26 (GeneID 36819) the deposit lists stable assay Renilla, run 1 = 8185; stable assay firefly, run 1 = 3.60e5.
Against RpL6 (GeneID 43723) #1, the values are stable assay Renilla, run 1 = 9637; stable assay firefly, run 1 = 4.23e5.
With knock-down of RpL6 (GeneID 43723) #2, the record shows stable assay Renilla, run 1 = 10155; stable assay firefly, run 1 = 4.54e5.

Already shown: 5 of the entries above.
RpS19a (GeneID 32635): stable assay Renilla, run 1 = 5543; stable assay firefly, run 1 = 3.91e5
Pka-C1 (GeneID 34284) #1: stable assay Renilla, run 1 = 6126; stable assay firefly, run 1 = 6.16e5
Pka-C1 (GeneID 34284) #2: stable assay Renilla, run 1 = 5186; stable assay firefly, run 1 = 3.51e5
CG15480 (GeneID 34723): stable assay Renilla, run 1 = 6778; stable assay firefly, run 1 = 3.29e5
CG33310 (GeneID 2768910): stable assay Renilla, run 1 = 7230; stable assay firefly, run 1 = 3.49e5
